Results reported in patent US7598419B2, “Compounds for modulating cell proliferation” (HSC Research and Development Limited Partnership, priority 2004, dated 2009).
Some results were stated once for a whole list of compounds, not compound by compound.

Test system: Philadelphia positive acute lymphoblastic leukemia (Ph+ ALL) cells
Test: Colony assay of Philadelphia positive ALL cells in methylcellulose culture
Format: cell-based, human
Conditions: Example 43, FIG. 9; colonies at 12 days
Procedure: (§1) Ph+ ALL cells were plated in 1 ml volumes, in the absence of exogenous growth factors, into 35 mm petri dishes (Nunc, Gibco) containing alpha MEM (Gibco) plus 10-20% FCS (Cansera Rexdale, ON.) in 0.9% (vol/vol) methylcellulose (Fluka, Switzerland) with the indicated concentrations of CR4. Cultures were set at 37° C., 5% CO2 in a humidified atmosphere. Colonies consisting of more than 20 cells were counted at 12 days or earlier using an inverted microscope.
as §1, with “ALL” for “Ph+ ALL”, “20%” for “10-20%”, “and” for “with”, “compound.” for “CR4.”
as §1, with “ALL” for “Ph+ ALL”, “20%” for “10-20%”, “and” for “with”, “CR24.” for “CR4.”, “9” for “12”, “microscope. […]” for “microscope.”

## N#C/C(=C\C=C\c1ccc(O)c(O)c1)C(=O)NCc1ccc(O)c(O)c1 [CR21, (E,E)-2-(3,4 Dihydroxybenzylaminocarbonyl)-3-(3,4-dihydroxystyryl)acrylonitrile]
  concentrations displaying significant inhibition of Ph+ ALL cell growth: 1 to 2.5 µM
